Experimental data as given in patent US20070254316A1.
These are yes or no findings as the source states them, for the method shown. Some entries that bind do so weakly or less than the wild type.

The chains behind the UniProt entries cited, without tags or fusion partners. Where a name states a change or a piece, a line headed by the entry shows the natural chain unless it says otherwise. A line that says so, or that is headed by a name, gives the form on record, which may keep a tag or linker. Residues count along the entry.
UniProt Q04609: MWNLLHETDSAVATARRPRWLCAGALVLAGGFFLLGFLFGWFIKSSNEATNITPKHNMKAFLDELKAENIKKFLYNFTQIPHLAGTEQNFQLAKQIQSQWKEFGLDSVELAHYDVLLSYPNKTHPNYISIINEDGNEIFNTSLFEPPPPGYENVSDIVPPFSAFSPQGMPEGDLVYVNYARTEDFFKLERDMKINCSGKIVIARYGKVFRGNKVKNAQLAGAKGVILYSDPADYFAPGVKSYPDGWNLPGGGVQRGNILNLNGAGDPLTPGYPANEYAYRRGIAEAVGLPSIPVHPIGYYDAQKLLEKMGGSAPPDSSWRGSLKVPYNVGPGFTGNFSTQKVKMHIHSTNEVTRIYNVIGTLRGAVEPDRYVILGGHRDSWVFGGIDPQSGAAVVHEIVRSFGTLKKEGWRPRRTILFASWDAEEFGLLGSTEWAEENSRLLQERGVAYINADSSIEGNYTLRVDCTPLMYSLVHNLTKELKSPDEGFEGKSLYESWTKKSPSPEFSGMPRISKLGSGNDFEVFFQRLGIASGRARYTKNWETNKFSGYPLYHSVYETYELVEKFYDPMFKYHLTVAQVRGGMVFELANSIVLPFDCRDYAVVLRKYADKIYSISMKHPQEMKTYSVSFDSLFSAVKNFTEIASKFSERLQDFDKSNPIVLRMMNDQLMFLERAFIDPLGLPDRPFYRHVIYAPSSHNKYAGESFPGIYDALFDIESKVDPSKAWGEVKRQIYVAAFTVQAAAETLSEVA
xPSM (extracellular portion of human PSMA, Tag-xPSM digested with enterokinase, no affinity tags): residues 44-750 of Q04609

Experiments:
[1] = molecular target: Tag-xPSM fusion target protein (human) (UniProt Q04609); experiment: phage ELISA, Tag-xPSM immobilised on microtiter plates, 10^10 PFU, absorbance at 410 nm
[2] = molecular target: xPSM (extracellular portion of human PSMA, Tag-xPSM digested with enterokinase, no affinity tags) (human) (UniProt Q04609); experiment: phage ELISA on xPSM
[3] = molecular target: PSMA on LNCaP cells (human) (UniProt Q04609); experiment: phage binding to LNCaP cells, 10^8 PFU, BRASIL partitioning and titer

Measured: binding

B1: R4-C9 phage (M13 phage displaying …) (peptide, not shown: large carriers)
chain: CTLVPHTRC
binds: [1] | [2] | [3]
